Measurements reported in PubChem BioAssay AID652272 (Drosophila RNAi Screening Center, 2013).
In all, the deposit lists about 21,000 reagents; this is an unselected part of those with a known target gene and a result. Of all reagents, 503 (2.4%) are marked active. 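Raw plate light values, not normalised; calls rest on replicate z-scores that were not deposited; hits include reporter decreases as well as increases.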 Unmarked entries are inactive. Reagents against one gene are numbered here. A plus sign joins genes that one reagent is predicted to hit. The record does not give: the amount of reagent, the time to read-out.

Assay: 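Genome-wide knock-down search for components of Hedgehog signalling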 (primary screen)
System: Drosophila clone 8 (Cl8) cells
Reagents: long dsRNA against Drosophila genes
Read-out: 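Plate reader light from a firefly reporter under a ptc promoter fragment that responds to Hedgehog, with Renilla light as transfection reference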
Reading the numbers: firefly Hh reporter signal: higher = more ptc reporter light; Renilla reference signal: higher = more Renilla control light
Call rule: 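Hit when the z-score averaged over two replicates is under -2 or over +3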
Calls: active = hit: reporter lowered or raised; inactive = not a hit

predicted target | dsRNA no. | firefly Hh reporter signal, replicate 1 | firefly Hh reporter signal, replicate 2 | firefly Hh reporter signal, replicate 3 | Renilla reference signal, replicate 1 | Renilla reference signal, replicate 2
AnxB9 | 1 | 1.16e5 | 68742 | – | 4640 | 3213
Cht7 + tRNA:Cys-GCA-1-4 + tRNA:Lys-CTT-1-13 | 1 | 7.99e5 | 1.77e5 | 1.45e5 | 5558 | 5362
CG13168 | 1 | 66644 | 44064 | – | 1677 | 3553
CG11586 | 1 | 2.07e5 | 1.65e5 | – | 7865 | 5669
Mco3 | 1 | 6.31e5 | 1.35e5 | – | 32358 | 3664
CG18249 | 1 | 1.01e5 | 98981 | – | 3901 | 4104
CG15130 | 1 | 82197 | 27092 | – | 2342 | 2432
Dredd | 1 | 1.14e5 | 82598 | – | 2449 | 2537
Taf10b + Taf10 | 1 | 92578 | 86058 | – | 2297 | 2402
CG43085 | 1 | 2.23e5 | – | – | 5589 | –
CG31855 | 1 | 60281 | 45136 | – | 1642 | 3861
CG10469 | 1 | 45943 | 37709 | – | 4922 | 2713
CG4286 | 1 | 75860 | 58744 | – | 1552 | 4085
salt | 1 | 1.22e5 | 76115 | – | 2739 | 2811
Mccc2 | 1 | 75274 | 55495 | – | 1864 | 3346
CG14538 (retired record) | 1 | 98326 | 57048 | – | 2284 | 5351
CG13511 | 1 | 95453 | 65009 | – | 2656 | 5872
CG30047 | 1 | 87218 | 1.78e5 | – | 2544 | 8141
ATPsynB | 1 | 1.24e5 | 92544 | – | 4672 | 1635
Cib2 | 1 | 1.05e5 | 42685 | – | 3011 | 3881
alien + CG17906 | 1 | 1.02e5 | 57965 | – | 2900 | 5595

Taken from above:
salt, firefly Hh reporter signal, replicate 1 → 1.22e5
CG18249, firefly Hh reporter signal, replicate 2 → 98981
For “firefly Hh reporter signal, replicate 2”, Cht7 + tRNA:Cys-GCA-1-4 + tRNA:Lys-CTT-1-13 reads 1.77e5
Entry of Mco3 under “firefly Hh reporter signal, replicate 2”: 1.35e5

The list goes on:
predicted target | dsRNA no. | firefly Hh reporter signal, replicate 1 | firefly Hh reporter signal, replicate 2 | firefly Hh reporter signal, replicate 3 | Renilla reference signal, replicate 1 | Renilla reference signal, replicate 2
ari-2 | 1 | 1.08e5 | 45798 | – | 2816 | 2829
GABPI | 1 | 76192 | 91219 | – | 3202 | 3757
CG31249 | 1 | 5.59e5 | 1.31e5 | – | 24368 | 3271
CG13614 | 1 | 4.81e5 | 72483 | – | 23624 | 2369
Inx2 | 1 | 1.07e5 | 86563 | – | 2740 | 2269
CG30380 | 1 | 1.01e5 | 2.36e5 | – | 6482 | 8929
CG6000 | 1 | 4.59e5 | 83323 | – | 23080 | 2289
Ir94a | 1 | 50900 | 1.80e5 | – | 10392 | 3813
Caf1-105 | 1 | 1.28e5 | 44036 | – | 2691 | 3315
CG42674 | 1 | 6.26e5 | 1.39e5 | – | 6116 | 6116
CG42674 | 2 | 1.35e5 | 1.97e5 | – | 4592 | 5762
CG42674 | 3 | 1.28e5 | 1.69e5 | – | 2076 | 5059
Ccdc114 | 1 | 65981 | 83403 | – | 1604 | 2444
CG5254 | 1 | 66901 | 2.21e5 | – | 2539 | 7776
Hacd2 | 1 | 1.06e5 | 60087 | – | 2608 | 4357
CG3793 | 1 | 78640 | 69898 | – | 4169 | 3415
Ubqn | 1 | 88977 | 75245 | – | 2454 | 2353
Dhc1 | 1 | 3.13e5 | – | – | 5721 | –
Dhc1 | 2 | 59621 | 1.09e5 | – | 2000 | 2944
